{"source": "PubChem BioAssay AID186", "about": "(DTP/NCI, 2004)", "test_system": "B6D2F1 mice, nontumored toxicity test, survival", "experiment": "NCI In Vivo Anticancer Drug Screen. Data for tumor model Nontumored Animals (Toxicity Test) in B6D2F1 (BDF1) mice", "note": "Shown are survivors of the treated group in tumour-free mice. Survivors were counted at the toxicity check, usually on the fifth day, unless a day is given; later deaths do not show. Schedule codes are those of the source, taken here to give the interval after Q, in days (D) or hours (H), and the number of doses after X. Some molecules as drawn cover several salts, stereoisomers or complexes of the source; a dose is that of the sample tested. Some doses were run more than once; the results are listed from low to high.", "data": [{"compound": "O=C1c2ccccc2C(=O)c2c(NCCNCCO)ccc(NCCNCCO)c21", "values": [{"measurement": "survivor count", "setting": "dose: 32.0 mg/kg/injection, schedule: Q01DX001 (ip), vehicle: acid diluted with saline", "result": "8 of 8"}, {"measurement": "survivor count", "setting": "dose: 32.0 mg/kg/injection, schedule: Q01DX001 (ip), vehicle: saline", "result": "8 of 8"}, {"measurement": "survivor count", "setting": "dose: 32.0 mg/kg/injection, schedule: Q01DX001 (oral), vehicle: saline", "result": "8 of 8"}, {"measurement": "survivor count", "setting": "dose: 32.0 mg/kg/injection, schedule: Q01DX001 (sc), vehicle: acid diluted with saline", "result": "8 of 8"}, {"measurement": "survivor count", "setting": "dose: 32.0 mg/kg/injection, schedule: Q01DX005 (ip), vehicle: acid diluted with saline", "result": "8 of 8"}, {"measurement": "survivor count", "setting": "dose: 32.0 mg/kg/injection, schedule: Q01DX005 (ip), vehicle: saline", "result": "8 of 8"}, {"measurement": "survivor count", "setting": "dose: 32.0 mg/kg/injection, schedule: Q01DX005 (iv), vehicle: saline", "result": "7 of 8"}, {"measurement": "survivor count", "setting": "dose: 32.0 mg/kg/injection, schedule: Q01DX009 (ip), vehicle: acid diluted with saline", "result": "8 of 8"}, {"measurement": "survivor count", "setting": "dose: 32.0 mg/kg/injection, schedule: Q01DX009 (ip), vehicle: saline", "result": "8 of 8"}, {"measurement": "survivor count", "setting": "dose: 32.0 mg/kg/injection, schedule: Q01DX009 (oral), vehicle: acid diluted with saline", "result": "8 of 8"}, {"measurement": "survivor count", "setting": "dose: 32.0 mg/kg/injection, schedule: Q01DX009 (oral), vehicle: saline", "result": "8 of 8"}, {"measurement": "survivor count", "setting": "dose: 32.0 mg/kg/injection, schedule: Q01DX009 (sc), vehicle: acid diluted with saline", "result": "8 of 8"}, {"measurement": "survivor count", "setting": "dose: 32.0 mg/kg/injection, schedule: Q01DX009 (sc), vehicle: saline", "result": "8 of 8"}, {"measurement": "survivor count", "setting": "dose: 32.0 mg/kg/injection, schedule: Q03HX008 (ip), vehicle: acid diluted with saline", "result": "2 of 8"}, {"measurement": "survivor count", "setting": "dose: 32.0 mg/kg/injection, schedule: Q03HX008 (ip), vehicle: saline", "result": "2 of 8"}, {"measurement": "survivor count", "setting": "dose: 32.0 mg/kg/injection, schedule: Q03HX016 (ip), vehicle: acid diluted with saline", "result": "3 of 8"}, {"measurement": "survivor count", "setting": "dose: 32.0 mg/kg/injection, schedule: Q03HX024 (ip), vehicle: acid diluted with saline", "result": "5 of 8"}, {"measurement": "survivor count", "setting": "dose: 32.0 mg/kg/injection, schedule: Q04DX003 (ip), vehicle: acid diluted with saline", "result": "8 of 8"}, {"measurement": "survivor count", "setting": "dose: 32.0 mg/kg/injection, schedule: Q04DX003 (ip), vehicle: saline", "result": "8 of 8"}, {"measurement": "survivor count", "setting": "dose: 32.0 mg/kg/injection, schedule: Q08DX002 (ip), vehicle: acid diluted with saline", "result": "8 of 8"}, {"measurement": "survivor count", "setting": "dose: 32.0 mg/kg/injection, schedule: Q08DX002 (ip), vehicle: saline", "result": "8 of 8"}, {"measurement": "survivor count", "setting": "dose: 50.0 mg/kg/injection, schedule: Q01DX009 (ip), vehicle: saline", "result": "10 of 10 and 9 of 9"}, {"measurement": "survivor count", "setting": "dose: 64.0 mg/kg/injection, schedule: Q01DX001 (ip), vehicle: acid diluted with saline", "result": "8 of 8"}, {"measurement": "survivor count", "setting": "dose: 64.0 mg/kg/injection, schedule: Q01DX001 (ip), vehicle: saline", "result": "7 of 8"}, {"measurement": "survivor count", "setting": "dose: 64.0 mg/kg/injection, schedule: Q01DX001 (oral), vehicle: acid diluted with saline", "result": "8 of 8"}, {"measurement": "survivor count", "setting": "dose: 64.0 mg/kg/injection, schedule: Q01DX001 (oral), vehicle: saline", "result": "8 of 8"}, {"measurement": "survivor count", "setting": "dose: 64.0 mg/kg/injection, schedule: Q01DX001 (sc), vehicle: acid diluted with saline", "result": "8 of 8"}, {"measurement": "survivor count", "setting": "dose: 64.0 mg/kg/injection, schedule: Q01DX005 (ip), vehicle: acid diluted with saline", "result": "4 of 8"}, {"measurement": "survivor count", "setting": "dose: 64.0 mg/kg/injection, schedule: Q01DX005 (ip), vehicle: saline", "result": "7 of 8"}, {"measurement": "survivor count", "setting": "dose: 64.0 mg/kg/injection, schedule: Q01DX005 (iv), vehicle: saline", "result": "0 of 8"}, {"measurement": "survivor count", "setting": "dose: 64.0 mg/kg/injection, schedule: Q01DX009 (ip), vehicle: acid diluted with saline", "result": "8 of 8"}, {"measurement": "survivor count", "setting": "dose: 64.0 mg/kg/injection, schedule: Q01DX009 (ip), vehicle: saline", "result": "8 of 8"}, {"measurement": "survivor count", "setting": "dose: 64.0 mg/kg/injection, schedule: Q01DX009 (oral), vehicle: acid diluted with saline", "result": "8 of 8"}, {"measurement": "survivor count", "setting": "dose: 64.0 mg/kg/injection, schedule: Q01DX009 (oral), vehicle: saline", "result": "8 of 8"}, {"measurement": "survivor count", "setting": "dose: 64.0 mg/kg/injection, schedule: Q01DX009 (sc), vehicle: acid diluted with saline", "result": "8 of 8"}, {"measurement": "survivor count", "setting": "dose: 64.0 mg/kg/injection, schedule: Q01DX009 (sc), vehicle: saline", "result": "5 of 8"}, {"measurement": "survivor count", "setting": "dose: 64.0 mg/kg/injection, schedule: Q03HX008 (ip), vehicle: acid diluted with saline", "result": "0 of 8"}, {"measurement": "survivor count", "setting": "dose: 64.0 mg/kg/injection, schedule: Q04DX003 (ip), vehicle: acid diluted with saline", "result": "8 of 8"}, {"measurement": "survivor count", "setting": "dose: 64.0 mg/kg/injection, schedule: Q04DX003 (ip), vehicle: saline", "result": "8 of 8"}, {"measurement": "survivor count", "setting": "dose: 64.0 mg/kg/injection, schedule: Q08DX002 (ip), vehicle: acid diluted with saline", "result": "8 of 8"}, {"measurement": "survivor count", "setting": "dose: 64.0 mg/kg/injection, schedule: Q08DX002 (ip), vehicle: saline", "result": "8 of 8"}, {"measurement": "survivor count", "setting": "dose: 128.0 mg/kg/injection, schedule: Q01DX001 (ip), vehicle: acid diluted with saline", "result": "7 of 8"}, {"measurement": "survivor count", "setting": "dose: 128.0 mg/kg/injection, schedule: Q01DX001 (ip), vehicle: saline", "result": "4 of 8"}, {"measurement": "survivor count", "setting": "dose: 128.0 mg/kg/injection, schedule: Q01DX001 (oral), vehicle: acid diluted with saline", "result": "8 of 8"}, {"measurement": "survivor count", "setting": "dose: 128.0 mg/kg/injection, schedule: Q01DX001 (oral), vehicle: saline", "result": "8 of 8"}, {"measurement": "survivor count", "setting": "dose: 128.0 mg/kg/injection, schedule: Q01DX001 (sc), vehicle: acid diluted with saline", "result": "8 of 8"}, {"measurement": "survivor count", "setting": "dose: 128.0 mg/kg/injection, schedule: Q01DX005 (ip), vehicle: acid diluted with saline", "result": "1 of 8"}, {"measurement": "survivor count", "setting": "dose: 128.0 mg/kg/injection, schedule: Q01DX005 (iv), vehicle: saline", "result": "0 of 8"}, {"measurement": "survivor count", "setting": "dose: 128.0 mg/kg/injection, schedule: Q01DX009 (oral), vehicle: acid diluted with saline", "result": "8 of 8"}, {"measurement": "survivor count", "setting": "dose: 128.0 mg/kg/injection, schedule: Q01DX009 (oral), vehicle: saline", "result": "8 of 8"}, {"measurement": "survivor count", "setting": "dose: 128.0 mg/kg/injection, schedule: Q04DX003 (ip), vehicle: acid diluted with saline", "result": "2 of 8"}, {"measurement": "survivor count", "setting": "dose: 128.0 mg/kg/injection, schedule: Q04DX003 (ip), vehicle: saline", "result": "3 of 8"}, {"measurement": "survivor count", "setting": "dose: 128.0 mg/kg/injection, schedule: Q08DX002 (ip), vehicle: acid diluted with saline", "result": "4 of 8"}, {"measurement": "survivor count", "setting": "dose: 128.0 mg/kg/injection, schedule: Q08DX002 (ip), vehicle: saline", "result": "6 of 8"}, {"measurement": "survivor count", "setting": "dose: 256.0 mg/kg/injection, schedule: Q01DX001 (ip), vehicle: acid diluted with saline", "result": "2 of 8"}, {"measurement": "survivor count", "setting": "dose: 256.0 mg/kg/injection, schedule: Q01DX001 (oral), vehicle: acid diluted with saline", "result": "8 of 8"}, {"measurement": "survivor count", "setting": "dose: 256.0 mg/kg/injection, schedule: Q01DX001 (oral), vehicle: saline", "result": "8 of 8"}, {"measurement": "survivor count", "setting": "dose: 256.0 mg/kg/injection, schedule: Q01DX001 (sc), vehicle: acid diluted with saline", "result": "8 of 8"}, {"measurement": "survivor count", "setting": "dose: 256.0 mg/kg/injection, schedule: Q01DX009 (oral), vehicle: acid diluted with saline", "result": "8 of 8"}, {"measurement": "survivor count", "setting": "dose: 256.0 mg/kg/injection, schedule: Q01DX009 (oral), vehicle: saline", "result": "8 of 8"}, {"measurement": "survivor count", "setting": "dose: 256.0 mg/kg/injection, schedule: Q04DX003 (ip), vehicle: acid diluted with saline", "result": "1 of 8"}, {"measurement": "survivor count", "setting": "dose: 256.0 mg/kg/injection, schedule: Q08DX002 (ip), vehicle: acid diluted with saline", "result": "1 of 8"}, {"measurement": "survivor count", "setting": "dose: 512.0 mg/kg/injection, schedule: Q01DX001 (ip), vehicle: acid diluted with saline", "result": "0 of 8"}, {"measurement": "survivor count", "setting": "dose: 512.0 mg/kg/injection, schedule: Q01DX001 (oral), vehicle: acid diluted with saline", "result": "8 of 8"}, {"measurement": "survivor count", "setting": "dose: 512.0 mg/kg/injection, schedule: Q01DX001 (oral), vehicle: saline", "result": "7 of 8"}, {"measurement": "survivor count", "setting": "dose: 512.0 mg/kg/injection, schedule: Q01DX001 (sc), vehicle: acid diluted with saline", "result": "1 of 8"}, {"measurement": "survivor count", "setting": "dose: 1024.0 mg/kg/injection, schedule: Q01DX001 (oral), vehicle: acid diluted with saline", "result": "8 of 8"}]}]}
